For at least one entry, the source does not settle the construct or the ends of the probe.
Target: PdhR (Escherichia coli K-12 W3110) (UniProt P0ACL9)
Assay: EMSA
Conditions: Gel shift buffer (composition not given), 37 °C, 30 min, 0.2 pmol probe, 0-10 pmol PdhR, GelRed stain, recombinant protein, protein details: His-tag (pET21a, Ni-NTA), probe letters rebuilt from the primers and the genome
[1] = smear, complex dissociates in gel

Chains of the proteins cited; added tags and fusions are not shown. Lines headed by an entry give the natural chain unless they say otherwise; changes in a name come on top.
UniProt P0ACL9: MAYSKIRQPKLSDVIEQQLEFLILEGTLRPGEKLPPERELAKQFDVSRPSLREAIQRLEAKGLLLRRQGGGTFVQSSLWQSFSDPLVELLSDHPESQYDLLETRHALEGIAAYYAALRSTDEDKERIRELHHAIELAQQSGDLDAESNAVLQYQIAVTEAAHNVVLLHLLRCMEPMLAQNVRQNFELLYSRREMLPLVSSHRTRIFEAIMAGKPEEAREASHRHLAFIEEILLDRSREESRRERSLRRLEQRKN

Sequence	binding result (clear complex band)	binding result	binding result [1]
AGAGGAATGTGTGCTTGTGTCTCAGCCCAACGTGAGTGCCTGTTTTTGAGTCGTTGAGTTCTACAGTCCAAAGTGCTGAAACCATTCAAGAGTCAATTGGCGCGCATTATACGCTGAAATTAATCCAAAAGGAAAACAAAAACAGCGTTTCAAAAAATATACAACTTGTTAGACAATAAATTGTTATCAAAGATTTAACGTTCCAGGGAAAAGGTTACGCAAAAACTTCACTGTTTGCGCAACGTCTGGTGCCGAAGTTGTCAGTGTGAGGATAAGTGAAAGTTCATCCGGTGTATAAATATATCATCGCTCAATTGCTACAGTTAAAATAATTTATCGCGTTATTTGTCTGATTTTGTTTGATTTTTGTTTAATTGGTTAGATTGATATATGCTGATAGTTGGCATGATAAATAGGTATAAAGAATGGGA (double strand) [fumD/pykF probe]	binds		
AGTTTCTCCATCACTGGTCGGTGATCAGAACCTTAAAACAGCGTAGACGCTTTTTGGGCTTTGTGAGAAATCTCGCAGAAAAAACCGCGAGTCTATAATCCGACGTAGAACAGAGGGAAAGGAGGAACCCTTGCCGAAATGACTATCCATAGTGAGTCGGGAACGATCCTGTCCCCGTAAAAACATAATATTTATCGTAGCTTTAACAACTCGAAATTAGTATAGGCCGCTAATTTCAATCATACAACAAAATTTTGTTAGCAGCCTAAGTATAAGTATATCGATATAGATCAGTGTGATTCGCTATGAGCGACTTCGGCATTGCCATGATTCTGGCAGCCAACTTCTTCACAACGTTGCATCATGTAACCCAGCGCGACCAGCACTACTGTTGATAACATCACGC (double strand) [ydhC ORF probe]		binds	
ATGTTGGCACCATTATGGACAACTCCGACTGCACCGCGTCTTACAGCCGCGTGTTTGCAAACCGCGCAGAAGCAGAGCAAACGCTGGCGGCGCTGACTGAAAAAGCCCGTAGCGTGGAATCTGAACCTTGCAAAATCACCCCGACTTTCACTGAAGAGTCTGACGGTGTGCGCCTGGATATCGATTTCACTTTTGCCTGCGAAGCTGAAATGCTGATTTTCCAGCTGGGTCTGCGTTAATTCCTCTCGGGTACGTACGCCCCTGTCAGTTGCTGGCAGGGGCGTTTTCTTTTCTCTTCTTCTTTTCTCTCTGTGTCATAGCTCCCACTTTCCCTTTTCTCCACTTGGCTAAATGTAAAAAAATGGTTAAGACTATGATCAGGTCAGACCACTTTATTTATTTTTTTACAGGGGAGTGTT (double strand) [fadI probe]			binds
CGAACAATCCTTTTGTGATAAATGAACGGTTTGAGAAACACATTTCTGCGCATTTATCTTTGCATATTTAACCGGATGAAAAAAACGGTGAATCGTTCAAGCAAATATATTTTTTTACTTTTTAAGACTGATCCCAGCGTTGCGCAAATCTGCTCTCTTCGACAATTTCCACATAAACCATCGGTATAAACGAAACCATAAAAATGAAATGCTGTTTTCATAAAAAATAAAATTGAAGGTTCATTTTATAAACCAGACATAACGTTCTACGCTTCTGTGCGTTTTTAATTTATGCTTTCATAGAATTATGTCTGCATCACGGGAAGAACAAAATGGATAATGCTGTTGATCGCCACGTTTTTTATATTTCTGATGGTACGGCAATAACTGCGGAGGTATTAGGACACGCAGTAATGTCACAATTT (double strand) [ppsA/ppsR probe]			binds
GAGTTCCTGTCTTAAGCCACTTGCCGAAGTCAATTGGTCTTACCAATTTCATGTCTGTGACGCTAAAGTAACAAAGTATTCACCTTATGTCCATACAGGTTTTGATTGAAATCATGAAACTGTGCACATTTTAACAACTTGACATATATAACGTTTCAAAGTTGTAACTATGCACAAATGTAGACTTTACGTAGGAAAGGAGTTTTTTAACGATTATTAAACTATAAAAATCCGAATTGAACCGATTCACTTACCAATTTTGTGATTTTTAATTCAATTAAAACGAATTTAAATTCATTCTACATATTGAGAGGGGTTGAGGCTGAGCTTTACAAACGGTTTCTTTTTAAGCAACTCATCTTCAACCATGCATAAAGCGGGTGCATTCGCTGCCGCATACCATTATTCTTGATCTGACGGAAGTCTTTTTGTAACAATTCAAACTTCTTTGATGTAAACAAATTAATACAACAAACGG (double strand) [aroP/pdhR probe]		binds	
TGATAAACAGCCCTGCGTTATATGAGTTATCGGCATGATTATCCGTTTCTGCAGGGTTTTTAATCGGACGATTAGTGGGTGAAATGAGGGGTTATTTGGGGGTTACAGGTAAATTCCAGGCAGAAAAAAACCCCGCCGGTGGCGGGGAAGCACGTTGCTGACAAATTGCGCTTTATGTTGCCGGATGCGGCGTAAACGCCTTATCCGGCCTACAAAAATGTGCAAATTCAATAAATTGCAATTCAACTTGTAGGCCTGATAAGCGCAGCGCATCAGGCAATTTGGCGTTGCCGTCAGTCTCAGTTAATCAGGTTACAACGATTAACCCTGCAGCAGAGACAGAACCTGCTGCGGTACCTGGTTAGCTTTTGCCAACACGGAGTTACCGGCCTGCTGGATGATCTGCGCTTTCGACATATTGGACACTTCGGTCGCATAGTCGGCGTCCTGAATACGGGACTGCGCTTCAGACAGGTTGGTAGTGGTGTTGTTCAGGTTGGTAACCGCGGAATCCAGACGGTTTTGCACCGCACCGAGGGAAGAACGGAATTTGTCTACAGATGCGATAGCATCGTCCAGCGCTTTCAGCGGATCCGTGGTTTTACCATTTGCAACAGCAGTCAGAGCCTCACCACCAGCAGTCAAACCTGTTTGCAGATTACCGCCATTTAAATCGGCAGAATCGTATGTTTTACCATCAATATCGACCACTTCTGTTTTGCCATCATCTCCGCCCAGTTTGACCGCGGTTGGAGAACTGGCGGCACCGGAAGAGTCAGTATAGGTAATAG (double strand) [fliA probe]	binds		
